Values of other authors as cited in patent US20030035827A1, “Pharmaceutical compositions containing substrates of enabling enzymes to preferentially deliver drugs away from PBVC or GIC systems” (priority 2001, published 2003).
For at least one compound, name, drawing or mass did not settle the structure.

Chains of the proteins cited; added tags and fusions are not shown. Residues count along the entry.
UniProt P06276, 29-602: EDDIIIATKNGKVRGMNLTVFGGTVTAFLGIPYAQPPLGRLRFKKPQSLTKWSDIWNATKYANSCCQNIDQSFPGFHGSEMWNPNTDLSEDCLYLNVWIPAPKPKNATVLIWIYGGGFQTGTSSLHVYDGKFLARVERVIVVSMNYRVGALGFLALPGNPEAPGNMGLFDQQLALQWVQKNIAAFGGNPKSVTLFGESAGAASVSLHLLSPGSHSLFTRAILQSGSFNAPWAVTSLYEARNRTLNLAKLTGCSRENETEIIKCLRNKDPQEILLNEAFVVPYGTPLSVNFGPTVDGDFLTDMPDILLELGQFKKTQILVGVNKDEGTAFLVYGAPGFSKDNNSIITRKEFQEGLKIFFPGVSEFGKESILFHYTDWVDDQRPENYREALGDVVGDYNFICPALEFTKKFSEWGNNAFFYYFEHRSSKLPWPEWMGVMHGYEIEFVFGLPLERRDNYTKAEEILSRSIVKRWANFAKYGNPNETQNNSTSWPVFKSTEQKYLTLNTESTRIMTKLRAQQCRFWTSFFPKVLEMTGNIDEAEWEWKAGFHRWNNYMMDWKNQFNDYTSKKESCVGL

Biological target: pseudocholinesterase, plasma cholinesterase or butyrocholinesterase (PCE) (Homo sapiens, UniProt P06276)
Conditions: substrate of PCE; previous experiments

Structure (SMILES)	Kcat
CC(=O)OCC[N+](C)(C)C [Acetylcholine]	33,200/min.
CC(=O)OCC(=O)[C@@]1(O)CC[C@H]2[C@@H]3C[C@H](C)C4=CC(=O)C=C[C@]4(C)[C@H]3[C@@H](O)C[C@@]21C [Methylprednisolone acetate]	25 min⁻¹
